The target of test [1] is T1, Flag-epitope-tagged Rpc128 (S. cerevisiae) (UniProt P22276).
T1 sequence: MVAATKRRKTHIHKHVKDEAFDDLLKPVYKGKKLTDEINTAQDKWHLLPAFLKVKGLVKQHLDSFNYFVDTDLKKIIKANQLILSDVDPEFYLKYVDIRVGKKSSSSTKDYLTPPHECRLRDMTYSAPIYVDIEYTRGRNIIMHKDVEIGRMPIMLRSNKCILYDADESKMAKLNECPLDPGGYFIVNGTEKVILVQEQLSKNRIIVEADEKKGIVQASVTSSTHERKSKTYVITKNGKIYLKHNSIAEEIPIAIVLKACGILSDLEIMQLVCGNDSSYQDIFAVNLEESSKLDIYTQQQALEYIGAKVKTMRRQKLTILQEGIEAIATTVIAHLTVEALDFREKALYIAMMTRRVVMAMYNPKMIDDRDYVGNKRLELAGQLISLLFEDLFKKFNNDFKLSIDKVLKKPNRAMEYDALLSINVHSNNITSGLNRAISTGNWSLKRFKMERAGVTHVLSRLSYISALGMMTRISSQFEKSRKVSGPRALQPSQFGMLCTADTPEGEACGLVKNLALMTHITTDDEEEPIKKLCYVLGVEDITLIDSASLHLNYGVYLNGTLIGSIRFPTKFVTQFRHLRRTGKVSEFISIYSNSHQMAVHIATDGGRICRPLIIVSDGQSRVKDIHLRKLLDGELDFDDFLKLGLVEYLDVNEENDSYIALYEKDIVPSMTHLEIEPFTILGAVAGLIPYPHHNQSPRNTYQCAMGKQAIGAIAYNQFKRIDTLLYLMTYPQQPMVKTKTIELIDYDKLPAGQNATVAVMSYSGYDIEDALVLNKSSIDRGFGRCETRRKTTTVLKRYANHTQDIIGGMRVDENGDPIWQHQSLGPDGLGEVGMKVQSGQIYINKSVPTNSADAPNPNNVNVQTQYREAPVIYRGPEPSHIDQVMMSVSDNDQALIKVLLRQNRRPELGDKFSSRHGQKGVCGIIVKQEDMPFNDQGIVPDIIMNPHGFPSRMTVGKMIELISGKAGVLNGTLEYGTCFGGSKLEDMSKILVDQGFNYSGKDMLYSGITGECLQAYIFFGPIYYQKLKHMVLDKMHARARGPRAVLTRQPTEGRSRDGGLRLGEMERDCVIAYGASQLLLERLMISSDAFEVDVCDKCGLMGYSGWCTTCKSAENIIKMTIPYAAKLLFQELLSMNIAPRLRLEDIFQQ
Kind of test: co-IP; Flag-tagged Rpc128 from yeast whole cell extract (1.5 mg) held on anti-FLAG antibody agarose beads (M2); 4°C, 2 h; WCE buffer (20 mM HEPES pH 7.9, 100 mM KCl, 5 mM MgCl2, 1 mM EDTA, 20% glycerol); Western blot. Background: A western blot detects proteins with antibodies after separation by electrophoresis.

Test [2] deals with T2, Full-length Rpc34 protein with an N-terminal V5 epitope tag, Alexa 647-labeled (S. cerevisiae) (UniProt P32910).
T2 sequence (chain, Alexa Fluor 647 NHS Ester label (labeling efficiency ~0.8)): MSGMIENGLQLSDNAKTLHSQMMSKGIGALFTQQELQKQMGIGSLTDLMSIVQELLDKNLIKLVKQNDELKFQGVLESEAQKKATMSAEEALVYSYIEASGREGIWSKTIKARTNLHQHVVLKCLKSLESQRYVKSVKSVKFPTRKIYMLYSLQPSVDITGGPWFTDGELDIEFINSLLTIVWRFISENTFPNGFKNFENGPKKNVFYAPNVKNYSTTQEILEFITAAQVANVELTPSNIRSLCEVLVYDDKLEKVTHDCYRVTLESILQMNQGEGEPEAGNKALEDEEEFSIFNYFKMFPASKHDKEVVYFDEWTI
The test can be described thus: MST; Alexa647-labeled Rpc34 constant at 5 nM, unlabeled Rpc31 peptides titrated (WT 1.16 μM to 0.000035 μM); 5 mM sodium phosphate pH 8.0, 0.05% Tween 20; 25°C; MST-on time 5 s; three independent measurements; both purified.

Results are given in words; binding and its absence hold for the method and conditions named. For some assays here: In cells and extracts the contact can be indirect. Some results given as binding are weak or reduced against the parent protein; the word gives no strength. Where a sequence is shown, tags or fusion partners need not be part of it.

B1: Rpc82 (protein, UniProt P32349 1-654)
chain: MDELLGEALSAENQTGESTVESEKLVTPEDVMTISSLEQRTLNPDLFLYKELVKAHLGERAASVIGMLVALGRLSVRELVEKIDGMDVDSVKTTLVSLTQLRCVKYLQETAISGKKTTYYYYNEEGIHILLYSGLIIDEIITQMRVNDEEEHKQLVAEIVQNVISLGSLTVEDYLSSVTSDSMKYTISSLFVQLCEMGYLIQISKLHYTPIEDLWQFLYEKHYKNIPRNSPLSDLKKRSQAKMNAKTDFAKIINKPNELSQILTVDPKTSLRIVKPTVSLTINLDRFMKGRRSKQLINLAKTRVGSVTAQVYKIALRLTEQKSPKIRDPLTQTGLLQDLEEAKSFQDEAELVEEKTPGLTFNAIDLARHLPAELDLRGSLLSRKPSDNKKRSGSNAAASLPSKKLKTEDGFVIPALPAAVSKSLQESGDTQEEDEEEEDLDADTEDPHSASLINSHLKILASSNFPFLNETKPGVYYVPYSKLMPVLKSSVYEYVIASTLGPSAMRLSRCIRDNKLVSEKIINSTALMKEKDIRSTLASLIRYNSVEIQEVPRTADRSASRAVFLFRCKETHSYNFMRQNLEWNMANLLFKKEKLKQENSTLLKKANRDDVKGRENELLLPSELNQLKMVNERELNVFARLSRLLSLWEVFQMA
Regarding B1, in test [1], the binding result is recorded as “binds”.

B2: Rpc31 with a single V5-epitope tag at its C-terminus (wild type) (protein, UniProt P17890 1-251)
chain: MSSYRGGSRGGGSNYMSNLPFGLGYGDVGKNHITEFPSIPLPINGPITNKERSLAVKYINFGKTVKDGPFYTGSMSLIIDQQENSKSGKRKPNIILDEDDTNDGIERYSDKYLKKRKIGISIDDHPYNLNLFPNELYNVMGINKKKLLAISKFNNADDVFTGTGLQDENIGLSMLAKLKELAEDVDDASTGDGAAKGSKTGEGEDDDLADDDFEEDEDEEDDDDYNAEKYFNNGDDDDYGDEEDPNEEAAF
On to B2, for which the binding result in test [1] was “binds”.

B3: Rpc34 (protein, UniProt P32910 1-317)
chain: MSGMIENGLQLSDNAKTLHSQMMSKGIGALFTQQELQKQMGIGSLTDLMSIVQELLDKNLIKLVKQNDELKFQGVLESEAQKKATMSAEEALVYSYIEASGREGIWSKTIKARTNLHQHVVLKCLKSLESQRYVKSVKSVKFPTRKIYMLYSLQPSVDITGGPWFTDGELDIEFINSLLTIVWRFISENTFPNGFKNFENGPKKNVFYAPNVKNYSTTQEILEFITAAQVANVELTPSNIRSLCEVLVYDDKLEKVTHDCYRVTLESILQMNQGEGEPEAGNKALEDEEEFSIFNYFKMFPASKHDKEVVYFDEWTI
As to B3, the binding entry in test [1] was “binds”.

B4: Rpc31(aa 121–251)_Flag_ΔS151-G164 (domain or fragment, UniProt P17890)
chain: SIDDHPYNLNLFPNELYNVMGINKKKLLAILQDENIGLSMLAKLKELAEDVDDASTGDGAAKGSKTGEGEDDDLADDDFEEDEDEEDDDDYNAEKYFNNGDDDDYGDEEDPNEEAAF
On to B4, for which the binding entry in test [2] is reported as “binds weakly”.

B5: Rpc160 (protein, UniProt P04051 1-1460)
chain: MKEVVVSETPKRIKGLEFSALSAADIVAQSEVEVSTRDLFDLEKDRAPKANGALDPKMGVSSSSLECATCHGNLASCHGHFGHLKLALPVFHIGYFKATIQILQGICKNCSAILLSETDKRQFLHELRRPGVDNLRRMGILKKILDQCKKQRRCLHCGALNGVVKKAAAGAGSAALKIIHDTFRWVGKKSAPEKDIWVGEWKEVLAHNPELERYVKRCMDDLNPLKTLNLFKQIKSADCELLGIDATVPSGRPETYIWRYLPAPPVCIRPSVMMQDSPASNEDDLTVKLTEIVWTSSLIKAGLDKGISINNMMEHWDYLQLTVAMYINSDSVNPAMLPGSSNGGGKVKPIRGFCQRLKGKQGRFRGNLSGKRVDFSGRTVISPDPNLSIDEVAVPDRVAKVLTYPEKVTRYNRHKLQELIVNGPNVHPGANYLLKRNEDARRNLRYGDRMKLAKNLQIGDVVERHLEDGDVVLFNRQPSLHRLSILSHYAKIRPWRTFRLNECVCTPYNADFDGDEMNLHVPQTEEARAEAINLMGVKNNLLTPKSGEPIIAATQDFITGSYLISHKDSFYDRATLTQLLSMMSDGIEHFDIPPPAIMKPYYLWTGKQVFSLLIKPNHNSPVVINLDAKNKVFVPPKSKSLPNEMSQNDGFVIIRGSQILSGVMDKSVLGDGKKHSVFYTILRDYGPQEAANAMNRMAKLCARFLGNRGFSIGINDVTPADDLKQKKEELVEIAYHKCDELITLFNKGELETQPGCNEEQTLEAKIGGLLSKVREEVGDVCINELDNWNAPLIMATCGSKGSTLNVSQMVAVVGQQIISGNRVPDGFQDRSLPHFPKNSKTPQSKGFVRNSFFSGLSPPEFLFHAISGREGLVDTAVKTAETGYMSRRLMKSLEDLSCQYDNTVRTSANGIVQFTYGGDGLDPLEMEGNAQPVNFNRSWDHAYNITFNNQDKGLLPYAIMETANEILGPLEERLVRYDNSGCLVKREDLNKAEYVDQYDAERDFYHSLREYINGKATALANLRKSRGMLGLLEPPAKELQGIDPDETVPDNVKTSVSQLYRISEKSVRKFLEIALFKYRKARLEPGTAIGAIGAQSIGEPGTQMTLKTFHFAGVASMNVTLGVPRIKEIINASKVISTPIINAVLVNDNDERAARVVKGRVEKTLLSDVAFYVQDVYKDNLSFIQVRIDLGTIDKLQLELTIEDIAVAITRASKLKIQASDVNIIGKDRIAINVFPEGYKAKSISTSAKEPSENDVFYRMQQLRRALPDVVVKGLPDISRAVINIRDDGKRELLVEGYGLRDVMCTDGVIGSRTTTNHVLEVFSVLGIEAARYSIIREINYTMSNHGMSVDPRHIQLLGDVMTYKGEVLGITRFGLSKMRDSVLQLASFEKTTDHLFDAAFYMKKDAVEGVSECIILGQTMSIGTGSFKVVKGTNISEKDLVPKRCLFESLSNEAALKAN
Take B5: the binding result in test [1] is “binds”.

Values taken from paper PMC10201443, “Site-directed biochemical analyses reveal that the switchable C-terminus of Rpc31 contributes to RNA polymerase III transcription initiation” (Nucleic Acids Research, 2022).
